Some of these results come from one statement about several compounds together. Some ranges recur; such a range may be that of the whole group of compounds. Where no end group is shown, it is not given here.
How the values were obtained:
[1] = test system: HEK293, HepG2 and 4T1 cells; test: In vitro luciferase expression, all three cell lines (Example 1); type: cell-based, human, mouse
Description: In vitro luciferase and GFP expression: HEK 293 and HepG2 cells were maintained in Dulbecco's modified Eagle's medium (DMEM) and 4T1 cells were cultured in RPMI 1640 growth medium at 37° C. with 5% CO2. All growth media used were completed with 10% fetal bovine serum, 100 μg/mL of streptomycin and 100 U/ml of penicillin.
One day before transfection, cells were seeded at a density that depended on the cell line and type of experiments. For the luciferase transfection assay, 0.5 mL of medium containing 5-8×10^4 cells were seeded into each well of a 24-well plate, while 1.0 mL of medium containing 1.8-2.0×10^5 cells were pipetted into each well of a 12-well plate for GFP expression. Peptide/DNA complexes were formed at various N/P ratios in 10 mM PBS (pH 7.0) by dripping equivolume solutions of peptide into DNA. The mixture was then vortexed for ˜10 seconds and left to stand for at least 30 minutes before usage. Meanwhile, all media were replaced with fresh ones. For experiments involving chloroquine or bafilomycin A1, growth medium containing a final concentration of 100 μM of chloroquine or 20 nM of bafilomycin A1 (dissolved in DMSO) was used. The complex solution (50 μL) containing 2.5 μg of the luciferase-encoded plasmids or 100 μL of complex solution containing 3.5 μg of GFP-encoded plasmids was subsequently dripped into each well. For experiments involving separation by size, the mixture was centrifuged at 3,000 rpm for 10 minutes before the supernatant and reconstituted sediment were separately dripped into the wells. All wells were completely aspirated and replaced with fresh media after 4 hours.
Analysis for luciferase expression was carried out after 3 days. Cells were washed once with 0.5 mL of PBS before the introduction of 0.2 mL of lysis buffer. […] The relative light unit (RLU) was measured with a luminometer (Lumat LB 9507, EG&G Berthold) and normalized against the protein concentration as measured with a bicinchoninic acid protein assay kit (Pierce). Luciferase activity was finally expressed as RLU/mg protein ±standard deviation of at least 4 samples. […]

DNA = test: Kinetics of DNA capture (PicoGreen); type: binding; details: PicoGreen fluorescence
Description: Upon condensation of the DNA, however, PicoGreen becomes excluded resulting in a drop in florescent intensity. Making use of this behavior, the kinetics of the DNA capturing process was traced and quantified. At time=0, the peptide solution was dripped into the DNA solution and vortexed for ˜10 seconds. At appropriate time intervals, 10 μL of the complex solution was taken out and mixed with 990 μL of PicoGreen working solution (diluted 400 times from its stock solution with TE buffer, pH 7.3). The fluorescence emission spectrum was then recorded with a Fluorolog LFI 3751 fluorescence spectrometer (Jobin Yvon Horiba). The excitation wavelength used was 480 nm and the silts were set to 4 nm. The fluorescence area intensity at any time point expressed as a percentage of the fluorescence intensity obtained with the initial concentration of DNA (before mixing with peptide) was used to reflect the concentration of uncaptured/loosely captured DNA. A profile was plotted to trace the temporal evolution of the DNA capturing process. Blanks and background were corrected for in all calculations.
To further understand the efficiency and kinetics of DNA capture by the peptides, PicoGreen was used as a sensitive fluorescence probe. […] This behavior can be employed to trace the temporal evolution of free/loosely bound DNA in solution.

**Q.** “FFFFFHHHHRRRRRRRR-NH2 [F, NH2—F5H4R8—CONH2]” was tested. Which “luciferase expression level higher than with peptide H” value [1] did it give?
**A.** 2-5 orders of magnitude

**Q.** With “NH2—W5H4R8—CONH2 (WWWWWHHHHRRRRRRRR; C-terminal amide)” as the substance, how does the “luciferase expression level higher than with peptide H” value [1] read?
**A.** 2-5 orders of magnitude

**Q.** “IIIIIHHHHRRRRRRRR-NH2 [I, NH2—I5H4R8—CONH2]” was tested. Which “luciferase expression level higher than with peptide H” value [1] did it give?
**A.** 2-5 orders of magnitude

**Q.** And the “time for completion of the DNA-capture process” value (DNA)?
**A.** less than 1 minute
